Measured data: PubChem BioAssay AID1259308 (NCATS, 2017)

Purpose: 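Knock-downs that increase output of a recombinant reporter protein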 (primary screen)
Cell system: human HEK293 embryonic kidney cells stably expressing firefly luciferase (HEK-CMV-Luc2-Hygro)
Reagent: single siRNA against human genes, 0.8 pmol siRNA per well
Time to read-out: 72 h
Read-out: 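Reporter luminescence and viable-cell signal on separate replicate plates, given as percent of non-targeting control and median/MAD z-scores, plus per-cell luciferase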
Direction: total luciferase, z-score and total luciferase, % of control: higher = more reporter protein produced
Rule for the call: 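An siRNA counts as active if its total luciferase robust z-score exceeds 3; genes with two or more such siRNAs out of three were retested with fresh siRNAs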
Meaning of the calls: active = raised luciferase; inactive = no rise
The deposit covers about 59,000 reagents; this is a random part of them. About 1,510 of them (2.6%) were called active. 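Calls use total luciferase alone and ignore viability, so some active siRNAs may act by altering cell number.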 Reagents against one gene are numbered here. Not all columns of the deposit are shown.

gene symbol,reagent,"total luciferase, z-score","total luciferase, % of control",Call
LCP1,1,-0.25,76.9,inactive
LCP1,2,0.595,93.7,inactive
LCP1,3,0.119,84.3,inactive
PRXL2C,1,-0.332,75.3,inactive
PRXL2C,2,-0.978,62.4,inactive
PRXL2C,3,-1.39,54.2,inactive
HSD17B10,1,-0.165,78.6,inactive
HSD17B10,2,-0.19,78.1,inactive
HSD17B10,3,-0.382,74.3,inactive
LRFN4,1,-0.713,67.7,inactive
LRFN4,2,-0.815,65.7,inactive
LRFN4,3,-0.0466,81,inactive
FGF5,1,1.57,113,inactive
FGF5,2,-0.475,72.4,inactive
FGF5,3,0.762,97,inactive
GABRP,1,0.0591,83.1,inactive
GABRP,2,-0.92,63.6,inactive
GABRP,3,0.406,90,inactive
RBM8A,1,1.33,108,inactive
RBM8A,2,1.17,105,inactive
RBM8A,3,1.36,109,inactive
TADA2B,1,-0.638,69.2,inactive
TADA2B,2,0.244,86.7,inactive
TADA2B,3,-0.0568,80.8,inactive
DACT1,1,0.041,82.7,inactive
DACT1,2,0.889,99.6,inactive
DACT1,3,0.396,89.8,inactive
ZFP90,1,-0.3,75.9,inactive
ZFP90,2,1.41,110,inactive
ZFP90,3,-1.14,59.1,inactive
IFT20,1,0.393,89.7,inactive
IFT20,2,-0.915,63.7,inactive
IFT20,3,-0.873,64.5,inactive
HELB,1,0.215,86.2,inactive
HELB,2,0.0197,82.3,inactive
HELB,3,1.42,110,inactive
COPZ2,1,-0.741,67.2,inactive
COPZ2,2,0.262,87.1,inactive
COPZ2,3,1.16,105,inactive
TSEN15,1,0.191,85.7,inactive
TSEN15,2,-0.588,70.2,inactive
TSEN15,3,0.171,85.3,inactive
TSLIG3B,1,0.113,84.1,inactive
TSLIG3B,2,0.225,86.4,inactive
TSLIG3B,3,-1.35,55,inactive
KIF2B,1,-1.07,60.5,inactive
KIF2B,2,2.39,130,inactive
KIF2B,3,-1.59,50.2,inactive
EIF3F,1,-2.12,39.7,inactive
EIF3F,2,-0.977,62.4,inactive
EIF3F,3,-2.25,37.1,inactive
CRTAC1,1,1.06,103,inactive
CRTAC1,2,0.376,89.4,inactive
CRTAC1,3,1.13,104,inactive
PAM,1,-0.591,70.1,inactive
PAM,2,-0.892,64.1,inactive
PAM,3,0.411,90.1,inactive

6 entries from above, reformatted.
RBM8A #3
- total luciferase, z-score: 1.36
- total luciferase, % of control: 109
- Call: inactive

TADA2B #1
- total luciferase, z-score: -0.638
- total luciferase, % of control: 69.2
- Call: inactive

TADA2B #2
- total luciferase, z-score: 0.244
- total luciferase, % of control: 86.7
- Call: inactive

TADA2B #3
- total luciferase, z-score: -0.0568
- total luciferase, % of control: 80.8
- Call: inactive

DACT1 #1
- total luciferase, z-score: 0.041
- total luciferase, % of control: 82.7
- Call: inactive

DACT1 #2
- total luciferase, z-score: 0.889
- total luciferase, % of control: 99.6
- Call: inactive
